No constants are given. Whether binding was seen depends on the method and setting. In cells and extracts the contact can be indirect. Some entries that bind do so weakly or less than the wild type. For part of these data: Sequences can lack the tags named with a protein.
T1: HA-HES1 (UniProt Q14469)
T1 sequence: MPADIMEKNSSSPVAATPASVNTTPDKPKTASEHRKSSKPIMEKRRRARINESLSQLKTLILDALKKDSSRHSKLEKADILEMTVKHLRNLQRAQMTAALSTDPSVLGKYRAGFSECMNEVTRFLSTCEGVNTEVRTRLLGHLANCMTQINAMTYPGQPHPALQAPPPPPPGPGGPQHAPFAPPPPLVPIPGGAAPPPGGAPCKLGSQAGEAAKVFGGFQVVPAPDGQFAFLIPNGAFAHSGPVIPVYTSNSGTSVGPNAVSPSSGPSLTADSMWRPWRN

Amino acid sequences for entries named in this document (tags omitted).
UniProt O95863: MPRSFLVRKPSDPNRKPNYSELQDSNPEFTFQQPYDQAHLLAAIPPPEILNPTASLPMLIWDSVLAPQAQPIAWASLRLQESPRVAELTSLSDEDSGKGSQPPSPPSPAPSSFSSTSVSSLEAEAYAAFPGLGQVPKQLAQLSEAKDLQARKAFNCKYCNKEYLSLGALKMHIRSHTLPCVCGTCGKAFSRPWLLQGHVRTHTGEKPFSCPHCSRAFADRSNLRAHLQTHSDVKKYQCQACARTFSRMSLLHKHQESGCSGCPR


Experiments:
[1] = target: Snail1 (human (endogenous in U251)) (UniProt O95863); assay: co-IP; mutual co-immunoprecipitation at endogenous levels in U251 cells, followed by immunoblotting
HA-Snail1 = HA-Snail1 (UniProt O95863); assay: co-IP; mutual co-immunoprecipitation at exogenous levels, myc- and HA-tagged proteins co-transfected in U251 cells (2 μg of each plasmid), followed by immunoblotting
HA-HES1 = target: T1, HA-HES1; assay: as above

Row | binding [1] | binding (HA-Snail1) | binding (HA-HES1) | Binder
1 | binds |  |  | RND3 (protein, UniProt P61587 1-244) MKERRASQKLSSKSIMDPNQNVKCKIVVVGDSQCGKTALLHVFAKDCFPENYVPTVFENYTASFEIDTQRIELSLWDTSGSPYYDNVRPLSYPDSDAVLICFDISRPETLDSVLKKWKGEIQEFCPNTKMLLVGCKSDLRTDVSTLVELSNHRQTPVSYDQGANMAKQIGAATYIECSALQSENSVRDIFHVATLACVNKTNKNVKRNKSQRATKRISHMPSRPELSAVATDLRKDKAKSCTVM
2 |  | binds | no binding | myc-RND3 (protein, UniProt P61587 1-244) MKERRASQKLSSKSIMDPNQNVKCKIVVVGDSQCGKTALLHVFAKDCFPENYVPTVFENYTASFEIDTQRIELSLWDTSGSPYYDNVRPLSYPDSDAVLICFDISRPETLDSVLKKWKGEIQEFCPNTKMLLVGCKSDLRTDVSTLVELSNHRQTPVSYDQGANMAKQIGAATYIECSALQSENSVRDIFHVATLACVNKTNKNVKRNKSQRATKRISHMPSRPELSAVATDLRKDKAKSCTVM

Source: publication PMC5347701
